The list shows a part of the results. Repeats are few or missing, and single values can be far off.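 Imaging used 1,536-well plates; nuclei positive for cleaved PARP by antibody were divided by total DNA-stained nuclei to yield the apoptosis fraction. Doses for screening kept most cells viable, and cell lines differ markedly in resting and induced cleaved-PARP levels.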
system: WM3619; assay: cleaved PARP positive nuclei fraction relative to DMSO control; melanoma cells; higher = more apoptosis; details: library dose: low library concentration; 72 h

Row | SMILES | cleaved PARP positive nuclei fraction [%]
1 | C[As](C)SC[C@H](NC(=O)CC[C@H](N)C(=O)O)C(=O)NCC(=O)O [Darinaparsin] + COCC[n+]1c2c(n(Cc3cnccn3)c1C)C(=O)c1ccccc1C2=O [YM155] (first compound 0.4 µM, partner dose 0.0004 µM) | 87.7
2 | COc1cc2c(Oc3ccc4[nH]c(C)cc4c3F)ncnc2cc1OCCCN1CCCC1 [cediranib] + Cc1cc(SCc2sc(-c3ccc(C(F)(F)F)c(F)c3)nc2C)ccc1OCC(=O)O [GW0742] (first compound 0.4 µM, partner dose 2 µM) | 81.7
3 | C[C@]12O[C@H](C[C@]1(O)CO)n1c3ccccc3c3c4c(c5c6ccccc6n2c5c31)CNC4=O [Lestaurtinib] + Cn1c(=O)n(-c2ccc(C(C)(C)C#N)cc2)c2c3cc(-c4cnc5ccccc5c4)ccc3ncc21 [NVP-BEZ235] (first compound 0.004 µM, partner dose 0.004 µM) | 102
4 | CN(C)S(=O)(=O)c1ccc2c(c1)/C(=C/c1cc3c([nH]1)CCCC3)C(=O)N2 + O=C(Oc1ccc([N+](=O)[O-])cc1)N1CCC(C(O)(c2ccc3c(c2)OCO3)c2ccc3c(c2)OCO3)CC1 [JZL184] (first compound 0.4 µM, partner dose 1 µM) | 70.2
5 | Cc1cc(Nc2cc(N3CCN(C)CC3)nc(/C=C/c3ccccc3)n2)n[nH]1 + Cc1cc(SCc2sc(-c3ccc(C(F)(F)F)c(F)c3)nc2C)ccc1OCC(=O)O [GW0742] (first compound 0.04 µM, partner dose 2 µM) | 105

From the supplement of paper PMC4604168 (melanoma cell lines)
